PMC11106082
These are yes or no findings as the source states them, for the method shown. Some results given as binding are weak or reduced against the parent protein; the word gives no strength.

T1: TssK cognate to TssA1 (H1-T6SS baseplate component) (P. aeruginosa) (UniProt Q9I753)
T1 sequence: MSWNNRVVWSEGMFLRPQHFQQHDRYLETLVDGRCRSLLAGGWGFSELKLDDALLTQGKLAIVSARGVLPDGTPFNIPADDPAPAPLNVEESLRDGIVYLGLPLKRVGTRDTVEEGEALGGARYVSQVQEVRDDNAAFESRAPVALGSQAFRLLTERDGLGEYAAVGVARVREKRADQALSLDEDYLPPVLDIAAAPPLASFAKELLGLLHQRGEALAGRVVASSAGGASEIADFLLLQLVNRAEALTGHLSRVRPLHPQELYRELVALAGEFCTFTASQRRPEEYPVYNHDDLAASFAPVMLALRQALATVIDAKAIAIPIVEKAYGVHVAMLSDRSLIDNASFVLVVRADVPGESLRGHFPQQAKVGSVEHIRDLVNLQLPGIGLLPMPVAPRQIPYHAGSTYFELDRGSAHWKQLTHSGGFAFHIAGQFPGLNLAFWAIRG

T2: TssB1 (P. aeruginosa), Q9I749
T2 chain: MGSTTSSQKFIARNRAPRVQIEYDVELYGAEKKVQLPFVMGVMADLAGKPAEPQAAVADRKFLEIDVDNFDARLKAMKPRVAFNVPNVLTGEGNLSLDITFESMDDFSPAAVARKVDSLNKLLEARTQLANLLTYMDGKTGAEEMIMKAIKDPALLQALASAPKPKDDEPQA

B1: TssA1 (protein, UniProt Q9I750 1-344)
chain: MLDVPVLLAAVSPDSPCGDDLEYDAAFLELERIAQGQPERQMGDAVLPAEPPEWPRVRALASELFGRSKDLRVANLLLQSNVALDGLDGLADGLLLVRELLGQYWDGVYPLLDADDDNDPTFRINALTGLVAEPLLQLVWAIPLVRSRAFGPVNLRAALNAAGLQRFASETLSPEQIAGAFADADADALAATRRALDGAQEHALAIESGVAERVGSAQGLDLGPLRQLLRQALQVFDLYGPQGAGESLAPGAEAVADEQVGAAPVAAVAAPAPRASGEIANREDVLRQLDRLLEYYVRHEPSSPVPVLLKRAKTLVTADFAEIVRNLIPDGISQFETLRGPESE
B2: TssA1, Q9I750 1-344 (protein)
chain: B1 chain

Legend:
Experiment in all cases: two-hybrid; bacterial two-hybrid (BTH): T18 and T25 fusions from pKT25 or pUT18C co-transformed into E. coli DHM1; spotted on LB agar with 1 mM IPTG and 100 µg/ml X-Gal, 30 °C, 24 or 40 h; blue colour on interaction
[1] = target: T1, TssK cognate to TssA1 (H1-T6SS baseplate component) (P. aeruginosa)
[2] = target: TssA1 (P. aeruginosa) (UniProt Q9I750)
[3] = target: T2, TssB1 (P. aeruginosa), Q9I749; conditions: remark: other sources report otherwise

| Binder | binding [1] | binding [2] | binding [3] |
| --- | --- | --- | --- |
| B1 | binds | binds |  |
| B2 |  |  | no binding |
